Experimental data: the supplement of paper PMC10849652
The other results are listed elsewhere or left out.

Chains of the proteins cited; added tags and fusions are not shown. Lines headed by an entry give the natural chain unless they say otherwise; changes in a name come on top.
UniProt Q04756: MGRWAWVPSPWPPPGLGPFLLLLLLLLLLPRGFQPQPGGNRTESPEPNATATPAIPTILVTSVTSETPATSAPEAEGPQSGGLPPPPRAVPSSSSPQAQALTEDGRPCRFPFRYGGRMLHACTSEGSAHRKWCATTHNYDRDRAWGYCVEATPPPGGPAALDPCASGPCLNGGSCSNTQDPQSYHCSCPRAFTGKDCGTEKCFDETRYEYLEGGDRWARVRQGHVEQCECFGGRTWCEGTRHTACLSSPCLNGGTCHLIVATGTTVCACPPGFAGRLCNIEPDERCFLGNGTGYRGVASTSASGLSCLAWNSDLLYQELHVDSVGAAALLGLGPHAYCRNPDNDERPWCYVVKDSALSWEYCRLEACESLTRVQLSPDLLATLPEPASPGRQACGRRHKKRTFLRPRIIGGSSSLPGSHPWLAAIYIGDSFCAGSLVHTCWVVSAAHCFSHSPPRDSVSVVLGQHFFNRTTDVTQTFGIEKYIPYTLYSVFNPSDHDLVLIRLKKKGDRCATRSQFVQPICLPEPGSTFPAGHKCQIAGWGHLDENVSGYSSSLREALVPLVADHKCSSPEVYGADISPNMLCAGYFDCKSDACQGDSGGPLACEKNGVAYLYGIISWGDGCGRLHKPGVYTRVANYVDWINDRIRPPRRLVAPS
UniProt O75367, whole entry, looked up: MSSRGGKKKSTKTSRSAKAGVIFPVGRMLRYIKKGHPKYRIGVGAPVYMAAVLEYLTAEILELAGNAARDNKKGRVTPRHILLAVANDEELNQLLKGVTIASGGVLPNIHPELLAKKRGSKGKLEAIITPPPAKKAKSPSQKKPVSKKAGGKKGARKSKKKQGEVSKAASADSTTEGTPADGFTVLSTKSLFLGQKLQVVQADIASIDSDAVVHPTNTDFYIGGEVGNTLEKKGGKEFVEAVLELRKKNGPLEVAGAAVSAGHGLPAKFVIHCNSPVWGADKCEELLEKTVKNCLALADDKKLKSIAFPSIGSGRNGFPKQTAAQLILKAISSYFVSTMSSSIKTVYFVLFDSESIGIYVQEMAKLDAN
UniProt Q6PII5: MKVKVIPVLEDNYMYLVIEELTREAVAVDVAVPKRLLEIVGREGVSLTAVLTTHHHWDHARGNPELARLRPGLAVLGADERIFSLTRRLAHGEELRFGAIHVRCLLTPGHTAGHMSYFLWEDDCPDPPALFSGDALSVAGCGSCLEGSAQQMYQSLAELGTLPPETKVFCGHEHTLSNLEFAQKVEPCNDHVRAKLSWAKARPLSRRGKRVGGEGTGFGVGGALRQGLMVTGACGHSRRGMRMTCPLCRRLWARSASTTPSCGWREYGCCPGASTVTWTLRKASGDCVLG
UniProt Q8WVB3: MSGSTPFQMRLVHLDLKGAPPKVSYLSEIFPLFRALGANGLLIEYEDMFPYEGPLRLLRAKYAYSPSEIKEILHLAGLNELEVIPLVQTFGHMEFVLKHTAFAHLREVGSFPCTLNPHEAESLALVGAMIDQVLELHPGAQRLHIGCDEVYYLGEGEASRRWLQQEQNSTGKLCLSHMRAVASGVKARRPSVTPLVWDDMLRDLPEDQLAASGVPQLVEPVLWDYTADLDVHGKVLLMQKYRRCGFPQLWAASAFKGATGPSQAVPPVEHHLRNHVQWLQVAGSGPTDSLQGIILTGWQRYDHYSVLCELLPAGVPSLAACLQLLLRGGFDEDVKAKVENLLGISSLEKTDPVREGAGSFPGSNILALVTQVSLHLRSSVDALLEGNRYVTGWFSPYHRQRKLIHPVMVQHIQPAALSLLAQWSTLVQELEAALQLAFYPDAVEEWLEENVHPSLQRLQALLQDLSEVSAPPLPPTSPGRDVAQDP
UniProt Q9NVX0: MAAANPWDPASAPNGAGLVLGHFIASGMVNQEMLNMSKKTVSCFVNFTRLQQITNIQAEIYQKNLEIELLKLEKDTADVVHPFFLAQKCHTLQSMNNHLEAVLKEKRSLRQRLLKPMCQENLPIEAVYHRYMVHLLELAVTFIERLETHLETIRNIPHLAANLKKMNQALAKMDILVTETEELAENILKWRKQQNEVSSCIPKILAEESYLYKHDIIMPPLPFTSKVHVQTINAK
UniProt Q5JVS0: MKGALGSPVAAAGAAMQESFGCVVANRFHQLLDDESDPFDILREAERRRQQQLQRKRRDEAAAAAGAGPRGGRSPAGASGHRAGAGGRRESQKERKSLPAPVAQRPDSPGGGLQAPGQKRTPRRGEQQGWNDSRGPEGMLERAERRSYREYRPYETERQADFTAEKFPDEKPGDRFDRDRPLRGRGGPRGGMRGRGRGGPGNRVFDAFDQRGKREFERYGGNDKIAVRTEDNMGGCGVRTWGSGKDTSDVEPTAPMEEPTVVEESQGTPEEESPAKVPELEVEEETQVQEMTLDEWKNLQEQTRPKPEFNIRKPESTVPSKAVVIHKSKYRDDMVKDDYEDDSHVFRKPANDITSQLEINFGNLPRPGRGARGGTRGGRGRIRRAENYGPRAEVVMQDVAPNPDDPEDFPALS
UniProt Q8N442: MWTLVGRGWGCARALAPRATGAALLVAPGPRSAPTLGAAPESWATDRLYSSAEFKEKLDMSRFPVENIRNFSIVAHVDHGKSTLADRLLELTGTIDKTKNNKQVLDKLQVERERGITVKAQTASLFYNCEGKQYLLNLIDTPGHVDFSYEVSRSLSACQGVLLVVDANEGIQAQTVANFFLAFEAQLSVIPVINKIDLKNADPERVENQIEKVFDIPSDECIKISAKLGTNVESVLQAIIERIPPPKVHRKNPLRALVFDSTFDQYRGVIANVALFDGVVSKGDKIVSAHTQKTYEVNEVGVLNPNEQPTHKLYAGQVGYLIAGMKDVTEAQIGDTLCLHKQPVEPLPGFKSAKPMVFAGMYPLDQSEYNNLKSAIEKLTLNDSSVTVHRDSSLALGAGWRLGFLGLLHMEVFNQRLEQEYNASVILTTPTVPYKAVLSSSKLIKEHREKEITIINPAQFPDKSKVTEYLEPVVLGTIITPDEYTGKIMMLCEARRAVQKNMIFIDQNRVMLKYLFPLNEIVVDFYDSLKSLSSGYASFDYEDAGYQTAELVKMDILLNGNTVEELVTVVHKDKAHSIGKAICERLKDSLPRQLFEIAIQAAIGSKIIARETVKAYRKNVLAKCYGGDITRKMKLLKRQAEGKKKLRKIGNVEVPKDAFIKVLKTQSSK
UniProt Q7Z4Q2: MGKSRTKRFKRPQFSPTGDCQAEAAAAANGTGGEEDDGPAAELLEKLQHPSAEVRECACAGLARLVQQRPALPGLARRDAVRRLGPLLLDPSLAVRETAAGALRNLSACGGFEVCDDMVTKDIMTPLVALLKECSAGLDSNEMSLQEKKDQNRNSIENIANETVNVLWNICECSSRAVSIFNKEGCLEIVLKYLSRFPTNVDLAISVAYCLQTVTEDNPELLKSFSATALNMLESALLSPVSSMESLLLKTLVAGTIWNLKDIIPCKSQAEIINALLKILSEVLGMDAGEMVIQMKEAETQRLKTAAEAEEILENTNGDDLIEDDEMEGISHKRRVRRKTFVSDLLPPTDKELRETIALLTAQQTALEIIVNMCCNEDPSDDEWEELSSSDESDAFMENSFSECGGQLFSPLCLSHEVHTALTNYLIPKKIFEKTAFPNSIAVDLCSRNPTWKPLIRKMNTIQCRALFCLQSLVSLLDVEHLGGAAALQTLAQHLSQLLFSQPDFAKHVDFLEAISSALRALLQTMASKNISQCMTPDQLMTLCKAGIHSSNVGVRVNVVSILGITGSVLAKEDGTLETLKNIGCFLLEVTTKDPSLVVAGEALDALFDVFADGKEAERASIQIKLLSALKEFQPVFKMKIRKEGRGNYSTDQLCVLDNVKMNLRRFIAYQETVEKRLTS
UniProt Q14469: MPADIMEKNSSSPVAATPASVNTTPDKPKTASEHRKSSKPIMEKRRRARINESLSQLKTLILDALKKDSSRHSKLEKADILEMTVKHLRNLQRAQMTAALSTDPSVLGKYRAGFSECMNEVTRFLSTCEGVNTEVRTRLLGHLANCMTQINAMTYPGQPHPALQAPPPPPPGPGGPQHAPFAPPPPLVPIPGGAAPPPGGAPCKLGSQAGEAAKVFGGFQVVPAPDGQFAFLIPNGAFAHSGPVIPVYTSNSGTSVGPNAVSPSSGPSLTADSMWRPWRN
UniProt Q8IYU2: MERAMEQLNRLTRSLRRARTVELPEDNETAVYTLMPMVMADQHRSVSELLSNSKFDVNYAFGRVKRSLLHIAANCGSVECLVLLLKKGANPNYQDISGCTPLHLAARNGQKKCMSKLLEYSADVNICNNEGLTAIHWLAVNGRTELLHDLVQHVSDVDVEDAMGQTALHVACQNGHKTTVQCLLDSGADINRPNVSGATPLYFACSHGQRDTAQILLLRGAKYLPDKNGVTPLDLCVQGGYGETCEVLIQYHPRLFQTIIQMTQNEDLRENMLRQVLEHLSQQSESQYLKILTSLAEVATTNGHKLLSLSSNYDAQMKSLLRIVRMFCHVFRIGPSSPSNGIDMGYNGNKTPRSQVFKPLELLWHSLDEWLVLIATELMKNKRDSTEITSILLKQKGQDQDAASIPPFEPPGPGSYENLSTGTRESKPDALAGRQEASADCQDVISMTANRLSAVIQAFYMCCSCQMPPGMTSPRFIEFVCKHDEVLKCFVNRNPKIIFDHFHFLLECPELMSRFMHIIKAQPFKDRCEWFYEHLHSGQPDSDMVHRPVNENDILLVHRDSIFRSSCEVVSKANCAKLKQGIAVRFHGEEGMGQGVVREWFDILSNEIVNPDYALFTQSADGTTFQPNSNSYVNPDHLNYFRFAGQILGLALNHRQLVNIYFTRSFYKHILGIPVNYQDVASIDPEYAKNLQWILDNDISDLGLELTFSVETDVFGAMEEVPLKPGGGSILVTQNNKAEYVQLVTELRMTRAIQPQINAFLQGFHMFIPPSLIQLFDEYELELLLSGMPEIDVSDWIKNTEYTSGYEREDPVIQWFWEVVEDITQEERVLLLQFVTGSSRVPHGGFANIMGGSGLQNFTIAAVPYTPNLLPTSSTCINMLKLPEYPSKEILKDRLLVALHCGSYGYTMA
UniProt Q93099: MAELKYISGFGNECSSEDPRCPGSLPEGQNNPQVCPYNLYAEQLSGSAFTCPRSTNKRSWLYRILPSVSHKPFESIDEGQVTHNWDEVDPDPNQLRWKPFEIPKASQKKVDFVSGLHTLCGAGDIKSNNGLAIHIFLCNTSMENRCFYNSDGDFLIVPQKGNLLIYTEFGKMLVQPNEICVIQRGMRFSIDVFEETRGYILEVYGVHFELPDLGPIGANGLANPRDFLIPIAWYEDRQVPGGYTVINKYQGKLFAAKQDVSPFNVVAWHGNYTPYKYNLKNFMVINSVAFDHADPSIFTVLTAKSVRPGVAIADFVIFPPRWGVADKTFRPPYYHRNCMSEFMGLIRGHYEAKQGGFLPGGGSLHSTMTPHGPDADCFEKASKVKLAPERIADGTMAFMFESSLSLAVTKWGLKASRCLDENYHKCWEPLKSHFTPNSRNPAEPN
UniProt Q969F1: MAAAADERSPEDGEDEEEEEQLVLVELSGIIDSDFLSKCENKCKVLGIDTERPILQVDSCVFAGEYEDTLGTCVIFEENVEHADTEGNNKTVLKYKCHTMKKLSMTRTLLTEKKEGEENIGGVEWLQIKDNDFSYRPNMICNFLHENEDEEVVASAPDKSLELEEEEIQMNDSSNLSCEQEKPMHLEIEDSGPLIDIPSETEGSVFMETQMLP
UniProt Q9NRZ9: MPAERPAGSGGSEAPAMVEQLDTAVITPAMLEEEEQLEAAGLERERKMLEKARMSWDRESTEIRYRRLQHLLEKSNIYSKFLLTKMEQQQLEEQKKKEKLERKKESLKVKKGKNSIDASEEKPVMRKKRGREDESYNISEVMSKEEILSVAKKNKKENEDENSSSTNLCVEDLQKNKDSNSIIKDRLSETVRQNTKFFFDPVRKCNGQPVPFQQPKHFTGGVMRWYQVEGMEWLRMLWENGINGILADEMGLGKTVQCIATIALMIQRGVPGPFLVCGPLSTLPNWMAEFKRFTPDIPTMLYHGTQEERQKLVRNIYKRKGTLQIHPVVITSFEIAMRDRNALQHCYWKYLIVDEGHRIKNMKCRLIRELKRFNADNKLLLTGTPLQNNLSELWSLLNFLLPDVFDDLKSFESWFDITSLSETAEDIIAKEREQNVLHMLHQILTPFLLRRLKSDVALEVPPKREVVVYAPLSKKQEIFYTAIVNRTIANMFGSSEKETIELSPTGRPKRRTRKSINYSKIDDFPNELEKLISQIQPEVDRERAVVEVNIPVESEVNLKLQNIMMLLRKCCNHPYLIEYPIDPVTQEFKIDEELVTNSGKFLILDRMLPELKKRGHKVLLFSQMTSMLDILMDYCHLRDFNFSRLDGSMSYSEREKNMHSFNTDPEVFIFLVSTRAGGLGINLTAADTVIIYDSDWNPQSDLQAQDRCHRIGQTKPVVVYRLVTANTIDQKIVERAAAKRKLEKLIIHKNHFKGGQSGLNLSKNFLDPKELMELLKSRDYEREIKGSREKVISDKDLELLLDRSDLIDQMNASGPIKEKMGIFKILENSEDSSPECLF

compound: C#Cc1cccc(Nc2ncnc3cc(OCCOC)c(OCCOC)cc23)c1 [erlotinib]; assay: log2 fold change, soluble protein after heating vs DMSO (PISA); higher = thermal stabilisation; K562 cells, 10 uM, 30 min; active = over 0.2 and 3.5 SD of the protein, either way, in both replicates (recomputed)
Outline: (§1)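 For each measurement, 10 μM compound was applied for 30 min to K562 cells at 2×10^6 cells/mL. Aliquots were heated for 3 min across 48°C-58°C, pooled, and extracted in PBS with 0.5% NP-40 at 4°C; the supernatant after 21,000xg for 90 min was soluble protein. This was quantified by TMTpro 16plex LC-MS/MS with channel sums equalised, and thermal stability was reported relative to control samples from duplicates, on a log2 fold-change scale.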

log2 fold change, inactive:
HGFAC (UniProt Q04756) -0.281
H3-3A (UniProt P84243) 0.085
HECTD4 (UniProt Q9Y4D8) -0.08
H2AFY (UniProt O75367) -0.027
HAGHL (UniProt Q6PII5) 0.051
HBD (UniProt E9PEW8) 0.054
HCFC1 (UniProt P51610) -0.186
H3-2 (UniProt Q5TEC6) 0.266
HEXD isoform 2 (UniProt Q8WVB3) 0.021
GTPBP8 (UniProt Q8N3Z3) 0.226
GYG2 (UniProt O15488) 0.077
HAUS2 (UniProt Q9NVX0) -0.037
HABP4 (UniProt Q5JVS0) -0.031
GTF2H1 (UniProt P32780) 0.019
GTF3C3 (UniProt Q9Y5Q9) 0.005
HERPUD1 (UniProt Q15011) -0.058
GUF1 (UniProt Q8N442) 0.075
HEATR3 (UniProt Q7Z4Q2) -0.002
HES1 (UniProt Q14469) 0.244
HACE1 (UniProt Q8IYU2) 0.03
HACD2 (UniProt Q6Y1H2) -0.138
HBZ, A0A494C057 0.141

compound: C/C(=N\NC(=O)C1=CC(=CC=C1)S(=O)(=O)N2CCOCC2)/C3=C(C=CC(=C3)Cl)O; assay: as above
Outline: as §1

log2 fold change, inactive:
HAUS8 (UniProt Q9BT25) -0.032
HBB (UniProt P68871) 0.061
HERC2 (UniProt O95714) -0.087
HAUS2 (UniProt Q9NVX0) 0.075
HAL (UniProt P42357) -0.151
HAUS5 (UniProt O94927) -0.099
GTF2H4 (UniProt Q92759) 0.003
HAUS7 isoform 2 (UniProt Q99871) 0.089
GTPBP4 (UniProt Q9BZE4) -0.391
GZF1 (UniProt Q9H116) -0.212
GUF1 (UniProt Q8N442) -0.039
HES1 (UniProt Q14469) 0.316

compound: C1=CC(=C(C=C1Cl)C2=NC3=NC=CN=C3C(=N2)NC4=CC=NC=C4)F; assay: as above
Outline: as §1

log2 fold change, inactive:
HGD (UniProt Q93099) -0.03
HGFAC (UniProt Q04756) 0.222
H2AFY (UniProt O75367) -0.366
HGF (UniProt P14210) -0.041
GTF3C6 (UniProt Q969F1) -0.051
HAGHL (UniProt Q6PII5) -0.067
HEXIM2 (UniProt Q96MH2) 0.175
HEXD isoform 2 (UniProt Q8WVB3) -0.003
GSTA1 (UniProt P08263) 0.008
HERC2 (UniProt O95714) -0.423
HAL (UniProt P42357) 0.092
HELLS (UniProt Q9NRZ9) -0.229
HABP4 (UniProt Q5JVS0) -0.307
GTF2H4 (UniProt Q92759) -0.113
GTPBP4 (UniProt Q9BZE4) -0.778
HEATR3 (UniProt Q7Z4Q2) -0.013
HDAC8 (UniProt Q9BY41) -0.48

compound: C1=CC(=CC=C1C2=NC3=C(N2)C=C(C=C3)C(=O)N)OC4=CC=C(C=C4)Cl; assay: as above
Outline: as §1

log2 fold change, inactive:
HGFAC (UniProt Q04756) 0.27
H3-3A (UniProt P84243) -0.035
HECTD4 (UniProt Q9Y4D8) -0.038
H2AFY (UniProt O75367) -0.028
HAGHL (UniProt Q6PII5) 0.069
HBD (UniProt E9PEW8) -0.037
HCFC1 (UniProt P51610) -0.417
H3-2 (UniProt Q5TEC6) -0.045
HEXD isoform 2 (UniProt Q8WVB3) 0.091
GTPBP8 (UniProt Q8N3Z3) -0.071
GYG2 (UniProt O15488) 0.166
HAUS2 (UniProt Q9NVX0) 0.138
HABP4 (UniProt Q5JVS0) 0.002
GTF2H1 (UniProt P32780) -0.037
GTF3C3 (UniProt Q9Y5Q9) 0.024
HERPUD1 (UniProt Q15011) -0.036
GUF1 (UniProt Q8N442) -0.161
HEATR3 (UniProt Q7Z4Q2) 0.013
HES1 (UniProt Q14469) -0.059
HACE1 (UniProt Q8IYU2) 0.055
HACD2 (UniProt Q6Y1H2) 0.063
HBZ, A0A494C057 -0.062
